Results from publication PMC10002493, “Direct Oral FXa Inhibitors Binding to Human Serum Albumin: Spectroscopic, Calorimetric, and Computational Studies” (International Journal of Molecular Sciences, 2023).
Where a name gives a salt, the structure may show the parent alone.

Key:
[1] = system: T1, human serum albumin (HSA); assay: Time-resolved fluorescence lifetimes (TCSPC) of HSA–anticoagulant complexes; assay type: binding; details: aerated, 293 K, λex 279 nm
T1 construct: purchased Sigma-Aldrich

fatty-acid-free HSA = system: T2, fatty-acid-free HSA; assay: Isothermal titration calorimetry (ITC) of anticoagulants with HSA; assay type: binding, human; details: phosphate buffer 10 mM, pH 7.4
T2 construct: purchased Sigma-Aldrich
Procedure: ITC analyses were performed in phosphate buffer, 10 mM, pH = 7.4. […] Lower ionization enthalpy reduces heat signals associated with proton-exchange reactions between the buffer and the ligand/host system during complex formation. […] A plot of the heat released per mole of HSA as a function of the molar ratio of the solution ([HSA]/[anticoagulant]) is shown at the foot of each figure. […] Control titrations were performed (drug over buffer) and subtracted from each analysis before the fitting.
ITC data were obtained using a MicroCal PEAQ-ITC instrument (Malvern Panalytical). […] Working solutions were prepared using aliquots of the stock solutions of anticoagulants diluted in phosphate buffer, 10 mM, pH = 7.4. […] The first injection was 0.40 μL, followed by 12 injections of 3.0 μL. Reference power was set to 5 μcal/s, 500 rpm stirring speed, initial delay of 60 s, and injection spacing of 150 s. Titration curves were drawn in duplicate and the thermodynamic parameters were fitted to the one-site binding model using Microcal PEAQ-ITC analysis software. Controls were measured by recording the heat effects of the titrant over plain buffer and were subtracted from thermograms before fitting analysis. All the measurements were performed in duplicate.

SMILES | <τF> average fluorescence lifetime ([1]; HSA:drug 1:1, HSA 2 µM) | A1 pre-exponential factor ([1]; HSA:drug 1:1, HSA 2 µM) | A2 pre-exponential factor ([1]; HSA:drug 1:1, HSA 2 µM) | τ1 fluorescence lifetime ([1]; HSA:drug 1:1, HSA 2 µM) [ns] | τ2 fluorescence lifetime ([1]; HSA:drug 1:1, HSA 2 µM) [ns] | <τF> average fluorescence lifetime ([1]; HSA:drug 1:2, HSA 2 µM) | A1 pre-exponential factor ([1]; HSA:drug 1:2, HSA 2 µM) | A2 pre-exponential factor ([1]; HSA:drug 1:2, HSA 2 µM) | τ1 fluorescence lifetime ([1]; HSA:drug 1:2, HSA 2 µM) [ns] | τ2 fluorescence lifetime ([1]; HSA:drug 1:2, HSA 2 µM) [ns] | <τF> average fluorescence lifetime ([1]; HSA:drug 1:4, HSA 2 µM) | A1 pre-exponential factor ([1]; HSA:drug 1:4, HSA 2 µM) | A2 pre-exponential factor ([1]; HSA:drug 1:4, HSA 2 µM) | τ1 fluorescence lifetime ([1]; HSA:drug 1:4, HSA 2 µM) [ns] | τ2 fluorescence lifetime ([1]; HSA:drug 1:4, HSA 2 µM) [ns] | <τF> average fluorescence lifetime ([1]; HSA:drug 1:6, HSA 2 µM) | A1 pre-exponential factor ([1]; HSA:drug 1:6, HSA 2 µM) | A2 pre-exponential factor ([1]; HSA:drug 1:6, HSA 2 µM) | τ1 fluorescence lifetime ([1]; HSA:drug 1:6, HSA 2 µM) [ns] | τ2 fluorescence lifetime ([1]; HSA:drug 1:6, HSA 2 µM) [ns] | further results
O=C(NC[C@H]1CN(c2ccc(N3CCOCC3=O)cc2)C(=O)O1)c1ccc(Cl)s1 [RV, rivaroxaban] | 5.28 | 0.40 | 0.60 | 3.00 | 6.80 | 5.25 | 0.41 | 0.59 | 2.98 | 6.82 | 5.22 | 0.42 | 0.58 | 2.98 | 6.85 | 5.18 | 0.43 | 0.57 | 2.94 | 6.87 | 
COc1ccc(NC(=O)c2ccc(C(=N)N(C)C)cc2)c(C(=O)Nc2ccc(Cl)cn2)c1 [BEM, betrixaban maleate] |  |  |  |  |  |  |  |  |  |  |  |  |  |  |  |  |  |  |  |  | ITC heat-evolution signals compared with control dilution experiments (fatty-acid-free HSA): showed heat-evolution signals associated with the binding processes
CN1CCc2nc(C(=O)N[C@@H]3C[C@@H](C(=O)N(C)C)CC[C@@H]3NC(=O)C(=O)Nc3ccc(Cl)cn3)sc2C1 [ED, edoxaban] | 5.31 | 0.39 | 0.61 | 2.99 | 6.80 | 5.25 | 0.40 | 0.60 | 2.93 | 6.80 | 5.11 | 0.40 | 0.60 | 2.71 | 6.71 | 5.01 |  |  | 2.94 | 6.88 | 
COc1ccc(NC(=O)c2ccc(C(=N)N(C)C)cc2)c(C(=O)Nc2ccc(Cl)cn2)c1 [BE, betrixaban] | 5.32 | 0.39 | 0.61 | 3.03 | 6.78 | 5.30 | 0.38 | 0.62 | 2.89 | 6.78 | 5.26 | 0.38 | 0.62 | 2.86 | 6.73 | 5.21 | 0.35 | 0.65 | 2.60 | 6.61 | 
COc1ccc(-n2nc(C(N)=O)c3c2C(=O)N(c2ccc(N4CCCCC4=O)cc2)CC3)cc1 [AP, apixaban] | 5.30 | 0.45 | 0.55 | 3.22 | 7.01 | 5.23 | 0.41 | 0.59 | 2.93 | 6.83 | 5.19 | 0.38 | 0.62 | 2.73 | 6.69 | 5.16 | 0.42 | 0.58 | 2.86 | 6.83 | ITC heat-evolution signals compared with control dilution experiments (fatty-acid-free HSA): showed heat-evolution signals associated with the binding processes
